Protein sequences, listed by entry. Tags and fused reporters are not part of them.
UniProt Q03164, whole entry, looked up: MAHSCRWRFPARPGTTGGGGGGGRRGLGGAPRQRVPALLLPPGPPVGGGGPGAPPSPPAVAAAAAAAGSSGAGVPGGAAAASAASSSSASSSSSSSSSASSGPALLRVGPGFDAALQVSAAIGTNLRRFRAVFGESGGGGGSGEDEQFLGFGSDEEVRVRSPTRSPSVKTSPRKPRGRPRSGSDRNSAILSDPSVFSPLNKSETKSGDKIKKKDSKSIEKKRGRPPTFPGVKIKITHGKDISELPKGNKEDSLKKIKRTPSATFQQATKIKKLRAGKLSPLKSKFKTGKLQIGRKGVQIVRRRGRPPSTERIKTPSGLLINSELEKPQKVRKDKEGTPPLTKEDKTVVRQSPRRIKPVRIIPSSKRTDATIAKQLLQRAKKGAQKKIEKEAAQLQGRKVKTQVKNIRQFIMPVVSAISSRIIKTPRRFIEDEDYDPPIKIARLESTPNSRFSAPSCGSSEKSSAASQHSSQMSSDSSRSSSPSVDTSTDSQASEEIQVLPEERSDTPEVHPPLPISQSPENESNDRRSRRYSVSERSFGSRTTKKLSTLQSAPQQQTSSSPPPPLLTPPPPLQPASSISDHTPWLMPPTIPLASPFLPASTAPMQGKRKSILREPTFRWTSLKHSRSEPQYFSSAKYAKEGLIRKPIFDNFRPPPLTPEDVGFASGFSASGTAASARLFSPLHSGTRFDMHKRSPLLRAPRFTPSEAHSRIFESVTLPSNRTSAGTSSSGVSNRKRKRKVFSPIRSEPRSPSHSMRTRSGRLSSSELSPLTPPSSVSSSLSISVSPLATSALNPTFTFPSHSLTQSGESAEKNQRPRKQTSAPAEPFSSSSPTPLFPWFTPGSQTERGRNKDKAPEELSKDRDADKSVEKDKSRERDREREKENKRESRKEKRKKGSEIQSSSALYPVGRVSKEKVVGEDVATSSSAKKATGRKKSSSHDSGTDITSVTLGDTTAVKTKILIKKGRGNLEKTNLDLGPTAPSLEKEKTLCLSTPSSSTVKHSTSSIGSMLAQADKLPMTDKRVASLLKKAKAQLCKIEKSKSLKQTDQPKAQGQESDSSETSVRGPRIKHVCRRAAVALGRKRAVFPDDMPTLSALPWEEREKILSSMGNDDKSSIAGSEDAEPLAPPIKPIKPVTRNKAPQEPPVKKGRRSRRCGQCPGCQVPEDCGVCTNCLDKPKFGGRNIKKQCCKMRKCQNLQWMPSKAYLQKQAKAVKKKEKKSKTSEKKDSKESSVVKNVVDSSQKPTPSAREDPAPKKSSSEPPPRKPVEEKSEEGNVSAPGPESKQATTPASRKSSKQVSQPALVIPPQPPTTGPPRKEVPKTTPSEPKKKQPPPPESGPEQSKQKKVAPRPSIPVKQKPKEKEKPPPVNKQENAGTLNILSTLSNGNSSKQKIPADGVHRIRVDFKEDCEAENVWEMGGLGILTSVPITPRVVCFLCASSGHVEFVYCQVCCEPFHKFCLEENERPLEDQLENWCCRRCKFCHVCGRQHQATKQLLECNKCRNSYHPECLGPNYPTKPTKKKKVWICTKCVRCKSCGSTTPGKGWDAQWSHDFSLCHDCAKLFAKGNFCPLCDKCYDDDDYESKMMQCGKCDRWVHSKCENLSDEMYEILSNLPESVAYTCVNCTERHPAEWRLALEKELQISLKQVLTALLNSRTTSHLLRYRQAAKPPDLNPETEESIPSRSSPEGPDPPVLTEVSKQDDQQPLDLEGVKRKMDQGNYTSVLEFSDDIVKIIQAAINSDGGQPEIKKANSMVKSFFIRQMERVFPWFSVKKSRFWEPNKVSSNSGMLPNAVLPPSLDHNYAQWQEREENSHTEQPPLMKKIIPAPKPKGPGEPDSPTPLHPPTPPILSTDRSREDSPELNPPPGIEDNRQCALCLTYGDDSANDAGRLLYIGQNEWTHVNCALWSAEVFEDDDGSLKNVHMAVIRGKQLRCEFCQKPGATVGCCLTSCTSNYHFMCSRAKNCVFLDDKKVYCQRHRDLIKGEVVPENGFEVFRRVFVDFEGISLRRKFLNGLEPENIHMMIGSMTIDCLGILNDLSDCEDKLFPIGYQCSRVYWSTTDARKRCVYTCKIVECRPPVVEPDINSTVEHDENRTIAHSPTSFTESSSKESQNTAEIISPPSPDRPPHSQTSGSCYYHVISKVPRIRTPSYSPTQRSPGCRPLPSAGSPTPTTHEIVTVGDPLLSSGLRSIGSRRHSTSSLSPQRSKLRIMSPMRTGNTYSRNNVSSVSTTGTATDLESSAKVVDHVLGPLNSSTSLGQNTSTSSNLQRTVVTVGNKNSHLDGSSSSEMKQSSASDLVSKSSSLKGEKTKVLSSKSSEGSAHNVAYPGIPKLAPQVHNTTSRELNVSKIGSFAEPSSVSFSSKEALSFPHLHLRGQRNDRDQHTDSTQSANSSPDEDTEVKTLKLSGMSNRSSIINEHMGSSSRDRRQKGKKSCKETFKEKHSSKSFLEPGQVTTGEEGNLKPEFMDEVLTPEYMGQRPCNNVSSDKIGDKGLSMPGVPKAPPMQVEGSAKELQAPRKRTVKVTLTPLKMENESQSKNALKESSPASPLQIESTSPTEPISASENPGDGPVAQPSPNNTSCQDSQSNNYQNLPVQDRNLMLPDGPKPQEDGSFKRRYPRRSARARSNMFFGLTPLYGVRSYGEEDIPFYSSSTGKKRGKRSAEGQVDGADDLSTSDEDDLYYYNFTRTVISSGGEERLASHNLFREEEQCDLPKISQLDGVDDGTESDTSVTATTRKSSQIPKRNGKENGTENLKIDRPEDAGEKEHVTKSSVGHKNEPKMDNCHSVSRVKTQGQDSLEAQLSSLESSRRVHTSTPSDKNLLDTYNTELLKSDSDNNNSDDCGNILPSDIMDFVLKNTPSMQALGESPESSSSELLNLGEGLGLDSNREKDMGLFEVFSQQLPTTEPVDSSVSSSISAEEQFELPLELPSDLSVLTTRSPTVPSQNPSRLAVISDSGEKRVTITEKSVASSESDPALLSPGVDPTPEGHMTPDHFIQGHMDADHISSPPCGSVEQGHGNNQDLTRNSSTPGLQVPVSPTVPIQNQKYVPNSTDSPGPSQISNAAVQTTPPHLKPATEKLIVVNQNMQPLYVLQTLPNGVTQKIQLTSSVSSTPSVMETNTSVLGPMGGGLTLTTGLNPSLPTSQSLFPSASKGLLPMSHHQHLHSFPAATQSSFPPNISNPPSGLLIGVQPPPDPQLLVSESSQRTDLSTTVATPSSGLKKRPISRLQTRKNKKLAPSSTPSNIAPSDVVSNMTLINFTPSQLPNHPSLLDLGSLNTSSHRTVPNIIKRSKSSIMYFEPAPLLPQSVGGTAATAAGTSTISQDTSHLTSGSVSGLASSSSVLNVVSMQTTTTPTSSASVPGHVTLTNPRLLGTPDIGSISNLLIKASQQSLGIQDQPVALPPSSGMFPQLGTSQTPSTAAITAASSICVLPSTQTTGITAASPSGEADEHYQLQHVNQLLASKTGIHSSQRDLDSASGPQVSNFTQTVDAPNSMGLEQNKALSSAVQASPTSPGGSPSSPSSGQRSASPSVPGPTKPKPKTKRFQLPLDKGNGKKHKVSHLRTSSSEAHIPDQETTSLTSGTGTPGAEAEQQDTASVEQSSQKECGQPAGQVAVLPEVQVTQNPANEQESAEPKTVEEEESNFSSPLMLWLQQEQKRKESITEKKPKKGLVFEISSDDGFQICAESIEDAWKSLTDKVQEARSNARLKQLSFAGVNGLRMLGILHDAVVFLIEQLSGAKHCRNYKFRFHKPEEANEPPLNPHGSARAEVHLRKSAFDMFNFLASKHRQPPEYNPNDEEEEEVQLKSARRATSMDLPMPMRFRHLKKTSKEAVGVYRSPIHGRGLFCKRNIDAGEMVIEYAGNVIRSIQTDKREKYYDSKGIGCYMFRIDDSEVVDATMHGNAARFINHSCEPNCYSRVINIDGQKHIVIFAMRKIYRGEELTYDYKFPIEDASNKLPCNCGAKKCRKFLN

Out of some 290,000 compounds screened, about 110 (0.038%) were called active. This list was built around the results that the source calls inconclusive (neither active nor inactive); the mix of calls is not that of the screen. Calls follow the shape of the dose curve; as a rule, active = well fitted inhibition curve with a large enough effect in the polarisation, with a control signal flat (not every such curve was filed as active); inconclusive = small, poorly fitted or top-dose-only effect, or effect the other way, or a change in a side signal; inactive = no such curve, though single readings can be large or run the other way; the % refers to the polarisation. A potency beside an inconclusive call is a rough fit, not a confirmed value. A note “side channel” means that the fit belongs to a control or component signal, not to the main read-out.
What follows are compounds tested against Histone-lysine N-methyltransferase 2A (Homo sapiens) (UniProt Q03164) (assay: qHTS Fluorescence Polarization Assay for Inhibitors of MLL CXXC domain - DNA interaction). Details: MLL-CXXC / FITC-HOXA9 DNA fluorescence polarization; series mostly up to 115 µM.
Method in brief: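 Steps: dispense CXXC domain solution (7 uM) → pin compounds or unlabeled HOX-A9 DNA control → 5 min ambient → add FLSN-HOX-A9 solution (50 nM) → spin → 30 min ambient → fluorescence polarization. Tris pH 7.5/NaCl/DTT/BSA buffer.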
In the case of `Cc1cc(OC(=O)c2ccccc2Cl)cc(=O)n1C`, the Potency was inconclusive: 2.82 µM [fluorescent, side channel, partial curve].
For `CCCCCCCC(=O)N/N=C(\C)c1ccc(O)cc1O`, the Potency was “inactive”.
In the case of `CCOC(=O)CSc1nnc(-c2ccoc2C)n1-c1ccc(OCC)cc1`, the Potency was “inactive”.
With `Cc1ccc(-c2ccc(/C=C/C(=O)c3ccccc3)o2)cc1` the Potency was inconclusive: 39.8 µM [fluorescent, side channel, single point].
`Nc1ccc2nc3c(=O)[nH]c(=S)[nH]c3nc2c1` was tested, and the Potency was inconclusive: 7.08 µM [fluorescent, side channel, full curve].
In the case of `Nc1nc(COc2ccccc2C=O)nc(Nc2ccccc2)n1`, the Potency was “inactive”.
With `O=C(Nc1ccccn1)C1(c2cccs2)CCOCC1` the Potency was inconclusive: 15.8 µM [fluorescent, side channel, full curve, poor fit].
`O=Cc1ccccc1OCc1ccc2c(c1)OCO2` was tested, and the Potency was inconclusive: 35.5 µM [inhibitor, partial curve].
`O=[N+]([O-])c1ccc(Cl)c(/C=N/n2c(-c3ccncc3)n[nH]c2=S)c1` was tested, and the Potency was “inactive”.
In the case of `O=C(O)/C=C/C(=O)Nc1ccccc1-c1ccccc1`, the Potency was “inactive”.
With `CCN1CCc2c(sc(NC(=O)c3ccc(S(=O)(=O)N4CCOCC4)cc3)c2C(=O)OC)C1` the Potency was inconclusive: 70.8 µM [quencher, side channel, single point].
`COC(=O)c1c(NC(=O)c2nc3ccccc3s2)sc2c1CC(C)(C)NC2(C)C` was tested, and the Potency was inconclusive: 35.5 µM [quencher, single point].
In the case of `CN(C)c1nc(N(C)C)nc(N(C#N)CCOc2ccccc2)n1`, the Potency was “inactive”.
For `Cc1ccc(C=C2C(=O)c3ccccc3C2=O)s1`, the Potency was inconclusive: 50.1 µM [inhibitor, partial curve].
In the case of `COc1ccc(C(=O)Nc2cc(C(C)=O)c(/C=C/N(C)C)oc2=O)cc1`, the Potency was inconclusive: 17.8 µM [fluorescent, side channel, partial curve].
With `COc1ccc(C=C2C(=O)OC(C)(C)OC2=O)cc1OC` the Potency was inconclusive: 22.4 µM [inhibitor, partial curve].
With `CN(C)CCCNC1CS(=O)(=O)CC1O` (centres undefined) the Potency was inconclusive: 15.8 µM [fluorescent, side channel, full curve, poor fit].
`COc1ccc(CN2CCCC(C(=O)N3CCCC3)C2)c(OC)c1` (centres undefined) was tested, and the Potency was inconclusive: 14.1 µM [fluorescent, side channel, single point].
In the case of `O=C(c1ccc2nc3ccccc3c(=O)n2c1)N1CCN(Cc2ccc3c(c2)OCO3)CC1`, the Potency was “inactive”.
`COc1ccc(Cl)cc1C(=O)N/N=C/c1ccc(N2CCOCC2)cc1` was tested, and the Potency was inconclusive: 39.8 µM [fluorescent, side channel, partial curve].
With `CCCCN(CC)C(=O)c1cc2c(=O)n3cccc(C)c3nc2s1` the Potency was inconclusive: 63.1 µM [fluorescent, side channel, single point].
For `Cc1cc(C)n2cc(CSc3nnnn3-c3ccc(Cl)cc3)nc2n1`, the Potency was “inactive”.
`Cc1cc(NC(=O)Cc2ccsc2)ccc1Br` was tested, and the Potency was inconclusive: 89.1 µM [inhibitor, single point].
`CCOC(=O)N1CCN(C(=O)c2ccc3c(c2)N=C(C)c2cc(Cl)ccc2S3)CC1` was tested, and the Potency was inconclusive: 44.7 µM [quencher, side channel, single point].
`CCc1ccc(NC(=O)C(=O)NCC2CCCO2)cc1` (centres undefined) was tested, and the Potency was “inactive”.
For `COc1ccccc1-n1cnc2c(c1=O)c1nc3ccccc3nc1n2-c1ccc(C)cc1`, the Potency was inconclusive: 20 µM [fluorescent, side channel, partial curve, poor fit].
For `COc1ccc(O)c(-c2cc(-c3ccccc3[N+](=O)[O-])[nH]n2)c1`, the Potency was inconclusive: 89.1 µM [quencher, side channel, single point].
For `COCCNC(=O)C1CCC(CNS(=O)(=O)c2c(C)cc(C)cc2C)CC1` (centres undefined), the Potency was inconclusive: 89.1 µM [quencher, side channel, single point].
For `O=C(Cn1cnc2cc([N+](=O)[O-])ccc2c1=O)NCc1ccccc1`, the Potency was inconclusive: 31.6 µM [fluorescent, side channel, partial curve].
With `Cc1n[nH]c(=S)n(NC(=O)/C=C/C(=O)Nn2c(=S)[nH]nc(C)c2=O)c1=O` the Potency was inconclusive: 31.6 µM [fluorescent, side channel, partial curve].
For `O=c1[nH]nc(CNc2ccc(O)cc2)c2ccccc12`, the Potency was “inactive”.
For `NC1=CC(=O)c2cccc3cccc1c23`, the Potency was inconclusive: 50.1 µM [fluorescent, side channel, single point].
In the case of `COC(=O)c1ccccc1OCC(=O)N1CCN(c2ccc(OC)cc2)CC1`, the Potency was inconclusive: 89.1 µM [quencher, side channel, single point].
In the case of `Cc1cc(C)n2nc(SCc3ccccc3F)nc2n1`, the Potency was “inactive”.
For `CC1CCC(C(C)C)C(OC(=O)Cn2c(-c3ccc(Cl)cc3)[n+](C)c3ccccc32)C1` (centres undefined), the Potency was inconclusive: 31.6 µM [quencher, side channel, partial curve].
With `COC(=O)c1ccccc1NS(=O)(=O)c1c(C)noc1C` the Potency was “inactive”.
For `CN(C)CCCN(C(=O)c1ccco1)c1nc2ccc(Cl)cc2s1`, the Potency was inconclusive: 39.8 µM [fluorescent, side channel, single point].
`O=c1cc[nH]c2c1ccc1c(=O)cc[nH]c12` was tested, and the Potency was inconclusive: 25.1 µM [fluorescent, side channel, partial curve].
For `OC(CNCCc1ccc(C(F)(F)F)cc1)COc1ccc2ccccc2c1` (centres undefined), the Potency was inconclusive: 1.41 µM [fluorescent, side channel, full curve, poor fit].
With `Cc1nn(C)cc1CNC(=O)C1CCC(=O)N(CC2CCCCC2)C1` (centres undefined) the Potency was inconclusive: 63.1 µM [quencher, side channel, single point].
In the case of `CCOC(=O)N=Nc1c2ccccc2c2nc3no[nH]c3nc12`, the Potency was inconclusive: 22.4 µM [inhibitor, partial curve].
With `CC(=O)Nc1cccc(NC(=O)CSc2nn3c(=O)c(C)nnc3s2)c1` the Potency was “inactive”.
`CC[n+]1c(/C=C/c2c[nH]c3ccccc23)ccc2cc(C)ccc21` was tested, and the Potency was inconclusive: 6.31 µM [fluorescent, side channel, full curve].
For `Cc1cc(NC(=O)CSc2ncnc3c2cnn3-c2ccccc2)no1`, the Potency was inconclusive: 1 µM [fluorescent, side channel, full curve, poor fit].
In the case of `O=C(OCc1ccccc1)c1cccnc1`, the Potency was inconclusive: 89.1 µM [inhibitor, single point].
`CCCS(=O)(=O)N1CCCC(C(=O)NCCCN2CCN(c3ccccc3F)CC2)C1` (centres undefined) was tested, and the Potency was inconclusive: 11.2 µM [inhibitor, single point].
With `CCN(CC)c1ccc(/C=C(/C#N)c2nc3ccccc3[nH]2)c(OC(C)C)c1` the Potency was inconclusive: 44.7 µM [fluorescent, side channel, partial curve].
In the case of `CN1/C(=C/c2cc[n+](C)c3ccccc23)C=Cc2ccccc21`, the Potency was inconclusive: 31.6 µM [quencher, side channel, partial curve].
For `CS(=O)(=O)N(CC(=O)NCCSC1CCCCC1)c1ccccc1`, the Potency was inconclusive: 14.1 µM [inhibitor, single point].
For `CCN(CC)Cc1c(O)ccc2c1O/C(=C\C=C\c1ccccc1)C2=O`, the Potency was inconclusive: 35.5 µM [fluorescent, side channel, partial curve].
With `CCn1c(C)nc2cc(-c3nc4n(n3)Cc3ccccc3-4)ccc21` the Potency was “inactive”.
`FC(F)(F)c1cnc(N2CCC(=NOCc3ccc(Cl)cc3)CC2)c(Cl)c1` was tested, and the Potency was “inactive”.
With `COc1ccc(OCCOc2ccccc2[N+](=O)[O-])cc1` the Potency was inconclusive: 15.8 µM [fluorescent, side channel, single point].
With `C/C(=N\Nc1nnc(C)c(=O)[nH]1)C(=O)O` the Potency was “inactive”.
In the case of `CCOc1cc(CNc2ncc(-c3ccc(OC)cc3)n2C)ccc1O`, the Potency was “inactive”.
With `O=C(COc1ccccc1Cl)NCc1nc(-c2ccccc2)no1` the Potency was inconclusive: 14.1 µM [fluorescent, side channel, single point].
`CCOC(=O)c1c(C)[nH]c(C(=O)COC(=O)c2ccncc2)c1C` was tested, and the Potency was inconclusive: 7.94 µM [inhibitor, partial curve].
In the case of `CC1CN(c2nc3ccccc3nc2C(C#N)C(=O)NCc2ccc3c(c2)OCO3)CC(C)O1` (centres undefined), the Potency was inconclusive: 8.91 µM [fluorescent, side channel, full curve].
In the case of `Cc1ccc(-c2csc(NC(=O)c3cc([N+](=O)[O-])ccc3N3CCOCC3)n2)cc1`, the Potency was “inactive”.
In the case of `Cn1c2ccccc2c2cc(/C=C(\NC(=O)c3ccccc3)C(=O)NCC(=O)O)ccc21`, the Potency was inconclusive: 39.8 µM [fluorescent, side channel, partial curve].
With `O=C1ON=C(c2cccc([N+](=O)[O-])c2)/C1=C/c1ccc(O)cc1` the Potency was inconclusive: 31.6 µM [inhibitor, single point].
For `O=S(=O)(c1ccc(-c2csc(Nc3ccc(Br)cc3)n2)cc1)N1CCCC1`, the Potency was inconclusive: 15.8 µM [fluorescent, side channel, single point].
`CN(Cc1cnccn1)C(=O)CC1C(=O)NCCN1CC(c1ccccc1)c1ccccc1` (centres undefined) was tested, and the Potency was “inactive”.
With `O=S(=O)(O)c1cccc2c(N=Nc3ccc(O)c4ncccc34)cccc12` the Potency was inconclusive: 14.1 µM [inhibitor, full curve].
Potency is read from the fitted curve at half-maximal effect.
